Measurements taken from article PMC8333275.
Results are given in words; binding and its absence hold for the method and conditions named. In cells and extracts the contact can be indirect. Some entries that bind do so weakly or less than the wild type. Sequences can lack the tags named with a protein.

Target: T1, Myc-tagged GRXCR2 (UniProt Q3TYR5)
T1 sequence: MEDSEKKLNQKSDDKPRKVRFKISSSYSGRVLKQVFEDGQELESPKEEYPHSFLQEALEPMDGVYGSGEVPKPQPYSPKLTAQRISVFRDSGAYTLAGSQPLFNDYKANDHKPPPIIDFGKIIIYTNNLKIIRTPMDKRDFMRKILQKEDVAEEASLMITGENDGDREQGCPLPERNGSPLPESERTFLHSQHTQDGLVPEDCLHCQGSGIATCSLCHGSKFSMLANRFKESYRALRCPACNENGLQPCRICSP
Experiment: co-IP; extracts of HEK293 cells transfected with GRXCR1-GFP and Myc-GRXCR2; immunoprecipitation with Myc antibody, western blot

binding: binds
B1: GFP-tagged GRXCR1 (protein, UniProt Q50H32 1-290)
chain: MLRRETKPESDRPRKVRFRIASSHSGRVLKEVYEDGQAPGSLDSECASICAIDGLSDSEGQQNGHIGSEDNEQEKDQDNLLVLARTASEKAFGTRRVNILSKNGTVRGVKYKVSAGQALFNNLTKVLQQPSADLEFDRVVIYTTCLRVVRTTFERCELVRKIFQNHRVKFEEKNIALNGDYGKELDERCRRVSEAPSLPVVFIDGHYLGGAEKILSMNESGELQDLLTKIERVQHPHECPSCGGFGFLPCSVCHGSKMSVFRNCFTDAFKALKCTACNENGLQRCKNCTC
